No constants are given. Whether binding was seen depends on the method and setting. Binding calls can cover weak binding; strength is not graded here. For some assays here: Binding seen in cells or lysates may run through a third protein.
Legend:
[1] = biological target: HfqH6 (His6-tagged Hfq expressed from pHfqH6) (E. coli) (UniProt P0A6X3); assay: cross-linking; in vivo, 0.25 mM DSP in PBS, 1 h at 37 °C, late exponential phase; HfqH6 complexes enriched on Ni-Agarose; with or without 50 mM DTT; SDS-PAGE, 24 gel slices analysed by mass spectrometry; no RNase A treatment
[2] = biological target: His-tagged EF-Tu (purified) (E. coli) (UniProt P0CE47); assay: far-Western, overlay or dot blot; purified proteins on 12.5% SDS-PAGE, blotted to nitrocellulose, denatured with guanidine-HCl and renatured, incubated overnight at 4 °C with 20 µg purified Hfq in 20 ml protein-binding buffer; bound Hfq detected with an anti-Hfq polyclonal antibody; both purified

By UniProt entry, the sequences of proteins in these tests, tags left out. Where a name states a change or a piece, a line headed by the entry shows the natural chain unless it says otherwise.
UniProt P0A6X3: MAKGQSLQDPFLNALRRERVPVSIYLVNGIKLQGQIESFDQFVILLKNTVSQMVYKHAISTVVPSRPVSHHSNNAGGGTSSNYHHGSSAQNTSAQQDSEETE
UniProt P0CE47: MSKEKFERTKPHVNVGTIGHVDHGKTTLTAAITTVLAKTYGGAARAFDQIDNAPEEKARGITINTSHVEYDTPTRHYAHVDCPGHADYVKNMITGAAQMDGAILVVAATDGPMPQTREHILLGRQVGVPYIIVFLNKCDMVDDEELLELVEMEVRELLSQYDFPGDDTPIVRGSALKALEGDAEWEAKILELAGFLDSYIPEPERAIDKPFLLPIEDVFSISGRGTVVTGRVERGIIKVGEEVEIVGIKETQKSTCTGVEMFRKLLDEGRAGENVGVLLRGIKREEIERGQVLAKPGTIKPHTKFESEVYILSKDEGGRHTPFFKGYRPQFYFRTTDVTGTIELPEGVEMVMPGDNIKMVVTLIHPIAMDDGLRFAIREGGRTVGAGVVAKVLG

binding [1] | binding [2] | Substance
binds |  | Elongation Factor Tu (from UniProt P0CE47)
 | binds weakly | Ec-HfqHis6 (purified) (from UniProt P0A6X3 1-102)

From publication PMC6773851, “Identification of protein-protein and ribonucleoprotein complexes containing Hfq” (Scientific Reports, 2019)
